In publication PMC9975678 one finds binding data, which are given here for one substance.

Chains of the proteins cited; added tags and fusions are not shown. Residues count along the entry.
UniProt O00629, residues 70-485: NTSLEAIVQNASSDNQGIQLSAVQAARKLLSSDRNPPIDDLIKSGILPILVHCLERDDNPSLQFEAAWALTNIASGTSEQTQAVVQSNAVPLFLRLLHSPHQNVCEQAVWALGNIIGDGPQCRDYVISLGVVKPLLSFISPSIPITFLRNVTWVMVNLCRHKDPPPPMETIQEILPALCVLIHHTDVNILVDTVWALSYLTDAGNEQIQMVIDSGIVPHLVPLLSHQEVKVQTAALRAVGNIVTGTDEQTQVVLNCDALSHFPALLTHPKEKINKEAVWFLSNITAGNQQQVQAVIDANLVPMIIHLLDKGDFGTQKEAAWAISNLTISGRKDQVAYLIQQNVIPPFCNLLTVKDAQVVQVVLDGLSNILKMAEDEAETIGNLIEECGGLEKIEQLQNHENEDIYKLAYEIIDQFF
UniProt Q12888, residues 1665-1686: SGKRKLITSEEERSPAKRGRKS

These are yes or no findings as the source states them, for the method shown. Some results given as binding are weak or reduced against the parent protein; the word gives no strength.

This experiment concerns the target ARM-repeat domain of human importin-α3 (residues 70–485) (human) (UniProt O00629). Kind of experiment: crystal structure; X-ray, 1.9 Å; purified importin-α3–53BP1 NLS complex (0.58 mM) with 0.71 mM Nup153C in 10 mM Tris–HCl pH 7.5, 150 mM NaCl, 2 mM 2-mercaptoethanol; hanging drop at 20 °C, 0.2 M LiNO3, 25% PEG3350; both purified.

Turning to “53BP1 (TP53-binding protein 1) bipartite nuclear localization signal (human 53BP1 residues 1665–1686) (from UniProt Q12888 1665-1686) (peptide)”, the binding result is “binds”.
